# Experimental data reported in the supplement of paper PMC8166895.
# Counter-ions that a name gives are not always drawn. This is one part of the list. Most values lie at the level of the controls, where differences are scatter.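 Melting temperature was read by differential scanning fluorimetry in a single-replicate pilot screen of a library of approved drugs and clinical or known-target compounds. Compounds raising the melting point by at least 2 °C were the top stabilizing hits, and negative shifts mean destabilization.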
# Test system: SARS-CoV-2 main protease (Mpro, nsp5)
# Test: thermal shift ΔTm of Mpro relative to plate average Tm; higher = stronger thermal stabilization of Mpro (binding)
# Settings: 10 µM; protein concentration 1 µM
row,Compound,thermal shift ΔTm of Mpro [°C]
1,NCC1CCC(C(=O)O)CC1 (stereo not drawn) [Amstat],0.216
2,O=C(CC1NCCCC1O)Cn1cnc2cc(Br)c(Cl)cc2c1=O (stereo not drawn) [Halofuginone hydrobromide],0.0564
3,Cc1cccc(/C=N/Nc2cc(N3CCOCC3)nc(OCCc3ccccn3)n2)c1 [Apilimod mesylate],-0.164
4,Cc1cccc(/C=N/Nc2cc(N3CCOCC3)nc(OCCc3ccccn3)n2)c1 [Apilimod],0.00159
5,Cc1ccc(NC(=O)c2ccc(CN3CC[C@H](N(C)C)C3)c(C(F)(F)F)c2)cc1Nc1nccc(-c2cncnc2)n1 [Bafetinib (INNO-406)],0.564
6,Cc1c2[n+](cc3cc4c(cc13)OCO4)CCc1cc3c(cc1-2)OCO3 [Worenine],0.0353
7,Cc1cccc(C)c1NC(=O)C1CCCCN1C (stereo not drawn) [Mepivacaine HCl],0.219
8,CCc1nc(-c2cccc(C)c2)c(-c2ccnc(NC(=O)c3ccccc3)c2)s1,-0.352
9,CN(C)c1ccc2nc3ccc(=[N+](C)C)cc-3sc2c1 [Methylene Blue],0.0458
10,CN(C)c1ccc2nc3ccc(=[N+](C)C)cc-3sc2c1 [Methylene Blue trihydrate],-0.157
11,COc1cc(/C=C/C(=O)N2CCC=CC2=O)cc(OC)c1OC [Piperlongumine],-0.214
12,N#Cc1ccc2[nH]cc(CCCCN3CCN(c4ccc5oc(C(N)=O)cc5c4)CC3)c2c1 [Vilazodone HCl],0.554
13,N#Cc1ccc2[nH]cc(CCCCN3CCN(c4ccc5oc(C(N)=O)cc5c4)CC3)c2c1 [Vilazodone],-0.023
14,CN1C(C(=O)Nc2ccccn2)=C(O)c2sccc2S1(=O)=O [Tenoxicam],0.3
15,CC(C)c1cc2c(c(O)c1O)[C@@]13CCCC(C)(C)[C@@H]1[C@H](OC3=O)[C@H]2O [Rosmanol],0.0817
16,Cc1ncc([N+](=O)[O-])n1CC(O)CCl (stereo not drawn) [Ornidazole],0.263
17,O=C(c1ccc2nccnc2c1)N1CCCCC1 [Ampalex],0.141
18,C[C@]12C=CC(=O)C=C1CC[C@@H]1[C@@H]2[C@@H](O)C[C@@]2(C)[C@H]1CC[C@]2(O)C(=O)COP(=O)(O)O [Prednisolone phosphate sodium],0.0858
19,N=C(N)N [Guanidine HCl],0.193
20,Cc1c(C(N)=O)cc([N+](=O)[O-])cc1[N+](=O)[O-] [Dinitolmide],-0.117
21,Oc1ccc(Cl)c2c1CCC2 [Chlorindanol],-0.129
22,Cn1c(=O)c2[nH]cnc2n(C)c1=O [Aminophylline],-0.0272
23,CS(=O)(=O)c1ccc(C2=C(c3ccccc3)C(=O)OC2)cc1 [Rofecoxib],-0.0932
24,CC(=O)c1cc([N+](=O)[O-])c(Sc2cccc(Cl)c2Cl)s1,0.0931
25,Cc1ccnc2c1NC(=O)c1cccnc1N2C1CC1 [Nevirapine],0.0402
26,CN(C)CCC=C1c2ccccc2CCc2ccccc21 [Amitriptyline HCl],-0.14
27,C#C[C@]1(O)CC[C@H]2[C@@H]3CCc4cc(OC5CCCC5)ccc4[C@H]3CC[C@@]21C [Quinestrol],-0.145

row,Compound,thermal shift ΔTm of Mpro [°C]
1,CC(C)[C@H](CO)Nc1nc(Nc2cccc(Cl)c2)c2ncn(C(C)C)c2n1 [Purvalanol A],-0.0804
2,Cc1[nH]c(=O)c(C#N)cc1-c1ccncc1 [Milrinone],-0.0494
3,OC(c1ccccc1)(c1ccccc1)C1CCNCC1 [Azacyclonol],0.047
4,Cc1cccc(/C=N/Nc2cc(N3CCOCC3)n3nc(-c4ccncc4)cc3n2)c1,0.0209
5,CCCOc1ccc2c(c1)CC[C@@H]1[C@@H]2CC[C@]2(C)[C@@H](OC)CC[C@@H]12 [Promestriene],0.221
6,OCCNC1CCCc2c1[nH]c1ccc(-c3ccccc3)cc21 (stereo not drawn),-0.105
7,Cn1cc(C(=O)Nc2ccc3c(c2)OCCO3)c2ccccc2c1=O,-0.0846
8,O=C(Nc1ccccc1)c1ccccc1O [Salicylanilide],0.241
9,COc1ccccc1OCCN [Carvedilol EP IMpurity E],-0.243
10,COc1ccccc1C(=O)Nc1cccc(NC(=O)c2cccc(C)c2)c1,-0.451
11,FC(F)(F)c1ccc(CNc2ccc(Cc3c[nH]c4ncc(Cl)cc34)cn2)cn1 [Pexidartinib (PLX3397)],0.455
12,COCC1=C(C(=O)OC(C)OC(=O)OC(C)C)N2C(=O)[C@@H](NC(=O)/C(=N\OC)c3csc(N)n3)[C@H]2SC1 (stereo partly drawn) [Cefpodoxime proxetil],0.139
13,CCN(CC)CCOC(=O)C(c1ccccc1)C1CCCCC1 (stereo not drawn) [Drofenine hydrochloride],0.117
14,COc1ccc([C@H]2CNC(=O)C2)cc1OC1CCCC1 [S- (+)-Rolipram],0.195
15,O=C(O)c1cc(F)c2nc(N3[C@@H]4CC[C@H]3C[C@@H](OCc3c(-c5ccccc5OC(F)(F)F)noc3C3CC3)C4)sc2c1 [Tropifexor],-0.691
16,COc1ccc(S(=O)(=O)NCc2ccc(C(=O)NCCc3ccc(Cl)cn3)cc2)cc1,0.0278
17,COc1cc2c(cc1OC)CN(CCc1ccc(NC(=O)c3cc(OC)c(OC)cc3NC(=O)c3cnc4ccccc4c3)cc1)CC2 [Tariquidar],-0.147
18,CN(C(=O)c1ccc(F)cc1C(F)(F)F)C1CCN(c2nnc(-c3ccnn3C)c3ccccc23)CC1 [Taladegib],-0.0128
19,C[C@@H](Oc1cc(-n2cnc3ccc(CN4CCN(C)CC4)cc32)sc1C(N)=O)c1ccccc1C(F)(F)F,-0.343
20,COc1cc(OC)c(OC)cc1C=O [Asaraldehyde],0.0687
21,CNCC[C@H](Oc1cccc2ccccc12)c1cccs1 [Duloxetine HCl],0.0734
22,C[N+]1(C)CCCC(OC(=O)C(O)(c2ccccc2)c2ccccc2)C1 (stereo not drawn) [Mepenzolate Bromide],-0.043
23,CC(=O)c1ccc2c(c1)N(CCCN1CCC(CCO)CC1)c1ccccc1S2 [Piperacetazine],-0.0469
24,CO[C@@]1(NC(=O)Cc2cccs2)C(=O)N2C(C(=O)O)=C(COC(N)=O)CS[C@@H]21 [Cefoxitin sodium],0.0371
25,COc1ccc2[nH]c(C(=O)N3CCC(CC(C)(C)O)CC3)cc2c1,0.108
26,CC1(COc2ccc3c(c2)ncn3-c2ccc3cccc(N4CCC(N)CC4)c3n2)COC1,-0.13

# 3 records picked at random from those above:
row,Compound,thermal shift ΔTm of Mpro [°C]
15,O=C(O)c1cc(F)c2nc(N3[C@@H]4CC[C@H]3C[C@@H](OCc3c(-c5ccccc5OC(F)(F)F)noc3C3CC3)C4)sc2c1 [Tropifexor],-0.691
10,COc1ccccc1C(=O)Nc1cccc(NC(=O)c2cccc(C)c2)c1,-0.451
6,OCCNC1CCCc2c1[nH]c1ccc(-c3ccccc3)cc21 (stereo not drawn),-0.105
